Reference: the M2OR odorant receptor database
Positions count from the first letter of the chain named. Only a part is listed here, and it is no random draw. Calls are pooled over several reports, among them a noisy single-well screen. This is one part of the list.

Chains of the proteins cited; added tags and fusions are not shown. A line that says so, or that is headed by a name, gives the form on record, which may keep a tag or linker.
OR5DE, as listed by the source: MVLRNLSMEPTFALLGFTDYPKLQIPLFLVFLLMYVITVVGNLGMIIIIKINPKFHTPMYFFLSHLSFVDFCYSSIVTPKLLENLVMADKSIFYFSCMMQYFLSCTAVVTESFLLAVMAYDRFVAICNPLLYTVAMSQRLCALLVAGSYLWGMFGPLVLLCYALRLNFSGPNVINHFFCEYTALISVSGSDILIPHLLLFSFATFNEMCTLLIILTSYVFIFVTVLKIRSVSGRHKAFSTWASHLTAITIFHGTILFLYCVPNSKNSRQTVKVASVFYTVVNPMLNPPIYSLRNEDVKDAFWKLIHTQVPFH
OR5H1, as listed by the source: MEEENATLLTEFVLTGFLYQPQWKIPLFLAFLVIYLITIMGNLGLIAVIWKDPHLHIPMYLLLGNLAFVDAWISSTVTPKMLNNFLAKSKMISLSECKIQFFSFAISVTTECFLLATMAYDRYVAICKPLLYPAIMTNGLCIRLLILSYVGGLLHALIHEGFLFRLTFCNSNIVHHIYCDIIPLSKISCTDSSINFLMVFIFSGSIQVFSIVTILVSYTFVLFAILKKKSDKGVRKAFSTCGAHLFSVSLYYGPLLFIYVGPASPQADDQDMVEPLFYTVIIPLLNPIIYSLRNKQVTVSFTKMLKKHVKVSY
OR5H2, as listed by the source: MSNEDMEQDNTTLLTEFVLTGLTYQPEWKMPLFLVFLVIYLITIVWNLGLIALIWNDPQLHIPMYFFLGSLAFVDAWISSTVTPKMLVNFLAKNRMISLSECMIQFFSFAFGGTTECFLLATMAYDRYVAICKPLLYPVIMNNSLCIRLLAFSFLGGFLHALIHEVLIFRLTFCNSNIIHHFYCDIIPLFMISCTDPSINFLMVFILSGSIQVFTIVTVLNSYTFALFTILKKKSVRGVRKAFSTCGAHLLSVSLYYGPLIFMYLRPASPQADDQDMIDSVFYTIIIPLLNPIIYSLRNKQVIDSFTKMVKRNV

Assays:
Conditions in all cases: stereoisomer not certain
[1] = test system: T1, OR5DG
T1 sequence (whole entry): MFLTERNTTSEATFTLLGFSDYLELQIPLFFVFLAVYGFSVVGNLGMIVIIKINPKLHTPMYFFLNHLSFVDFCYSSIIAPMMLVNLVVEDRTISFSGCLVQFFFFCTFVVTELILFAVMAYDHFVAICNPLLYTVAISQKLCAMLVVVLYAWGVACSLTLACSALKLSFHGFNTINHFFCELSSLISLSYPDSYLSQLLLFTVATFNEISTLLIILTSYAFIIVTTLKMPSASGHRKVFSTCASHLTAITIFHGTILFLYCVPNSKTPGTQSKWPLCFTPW
Method in brief: (§1)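 Transient luciferase assays in mammalian cell lines were common, though methods varied by source. The values come from published papers and their supplementary material, with extra details from the original authors when needed. Responsive refers to a measured signal the original authors judged statistically different from baseline, and non-responsive (inactive) to the remainder.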

[2] = test system: T2, OR5DI
T2 sequence (whole entry): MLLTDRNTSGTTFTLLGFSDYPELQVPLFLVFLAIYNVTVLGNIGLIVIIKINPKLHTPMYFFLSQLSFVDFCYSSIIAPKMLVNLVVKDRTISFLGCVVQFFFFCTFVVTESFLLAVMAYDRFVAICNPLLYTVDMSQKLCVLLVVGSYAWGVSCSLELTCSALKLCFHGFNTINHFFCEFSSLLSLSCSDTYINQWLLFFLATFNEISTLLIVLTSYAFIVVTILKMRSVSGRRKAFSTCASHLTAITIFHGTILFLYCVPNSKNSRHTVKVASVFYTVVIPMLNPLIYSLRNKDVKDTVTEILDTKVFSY
Method in brief: as §1

[3] = test system: T3, OR5F1
T3 sequence (whole entry): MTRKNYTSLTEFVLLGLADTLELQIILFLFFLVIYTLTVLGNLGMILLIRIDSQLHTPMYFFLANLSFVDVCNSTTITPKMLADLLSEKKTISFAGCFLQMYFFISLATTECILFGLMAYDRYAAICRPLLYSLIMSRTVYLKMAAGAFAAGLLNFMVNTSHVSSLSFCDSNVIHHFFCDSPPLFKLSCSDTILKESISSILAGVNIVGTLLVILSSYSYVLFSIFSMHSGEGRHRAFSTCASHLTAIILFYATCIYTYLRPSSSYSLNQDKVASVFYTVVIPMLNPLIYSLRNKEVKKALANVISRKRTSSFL
Method in brief: as §1

[4] = target: T4, OR5H1 (Homo sapiens) (UniProt A6NKK0)
T4 sequence (whole entry): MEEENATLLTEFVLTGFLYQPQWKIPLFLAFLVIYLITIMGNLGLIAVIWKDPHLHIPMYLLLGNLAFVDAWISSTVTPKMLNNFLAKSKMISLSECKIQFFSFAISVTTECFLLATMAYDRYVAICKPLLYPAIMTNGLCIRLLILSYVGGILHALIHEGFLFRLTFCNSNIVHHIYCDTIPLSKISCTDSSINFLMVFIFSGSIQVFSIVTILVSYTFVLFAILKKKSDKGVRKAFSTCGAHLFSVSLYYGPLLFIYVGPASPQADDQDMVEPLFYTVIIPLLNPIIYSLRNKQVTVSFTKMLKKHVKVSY
Method in brief: as §1

[5] = test system: T5, OR5H1
T5 sequence (whole entry): T4 sequence (whole entry) with I153L, T181I
Method in brief: as §1

[6] = test system: T6, OR5H2
T6 sequence (whole entry): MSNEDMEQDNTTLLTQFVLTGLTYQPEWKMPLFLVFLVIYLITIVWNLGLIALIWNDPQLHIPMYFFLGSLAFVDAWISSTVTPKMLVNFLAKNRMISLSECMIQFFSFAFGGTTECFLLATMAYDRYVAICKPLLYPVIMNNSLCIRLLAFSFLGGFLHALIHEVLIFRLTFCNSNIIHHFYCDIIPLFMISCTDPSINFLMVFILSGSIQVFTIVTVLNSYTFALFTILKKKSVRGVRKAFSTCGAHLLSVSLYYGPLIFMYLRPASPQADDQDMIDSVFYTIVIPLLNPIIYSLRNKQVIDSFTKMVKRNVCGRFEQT
Method in brief: as §1

[7] = test system: T7, OR5H2; remark: listed apart in the source
T7 sequence (whole entry): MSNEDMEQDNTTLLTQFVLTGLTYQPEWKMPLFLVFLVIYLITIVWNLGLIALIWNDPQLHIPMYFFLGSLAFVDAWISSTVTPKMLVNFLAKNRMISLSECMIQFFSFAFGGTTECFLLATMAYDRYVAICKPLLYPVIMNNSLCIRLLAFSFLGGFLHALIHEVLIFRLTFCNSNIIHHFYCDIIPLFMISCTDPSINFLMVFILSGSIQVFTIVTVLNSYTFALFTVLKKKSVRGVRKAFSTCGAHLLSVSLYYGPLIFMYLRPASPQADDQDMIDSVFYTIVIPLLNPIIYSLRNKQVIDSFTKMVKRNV
Method in brief: as §1

[8] = test system: T8, OR5H6
T8 sequence (whole entry): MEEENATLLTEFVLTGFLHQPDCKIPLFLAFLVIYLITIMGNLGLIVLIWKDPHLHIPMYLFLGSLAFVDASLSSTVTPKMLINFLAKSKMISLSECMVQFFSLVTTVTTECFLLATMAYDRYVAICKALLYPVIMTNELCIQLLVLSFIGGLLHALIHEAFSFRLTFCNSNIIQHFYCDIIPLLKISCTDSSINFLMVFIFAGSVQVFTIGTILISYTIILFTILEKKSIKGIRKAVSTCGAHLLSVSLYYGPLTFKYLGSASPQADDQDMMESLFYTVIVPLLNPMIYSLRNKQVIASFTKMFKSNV
Method in brief: as §1

[9] = test system: T9, OR5H6; remark: listed apart in the source
T9 sequence (whole entry): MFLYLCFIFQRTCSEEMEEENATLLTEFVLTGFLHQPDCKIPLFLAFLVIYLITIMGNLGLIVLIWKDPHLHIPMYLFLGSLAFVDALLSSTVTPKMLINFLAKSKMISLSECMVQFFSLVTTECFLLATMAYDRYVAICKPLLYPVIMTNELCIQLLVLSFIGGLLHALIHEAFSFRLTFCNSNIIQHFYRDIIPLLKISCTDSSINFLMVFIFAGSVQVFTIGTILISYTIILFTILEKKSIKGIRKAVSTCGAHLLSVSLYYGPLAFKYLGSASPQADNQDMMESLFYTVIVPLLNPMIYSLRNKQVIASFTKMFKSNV
Method in brief: as §1

[10] = target: T10, OR5I1 (Homo sapiens) (UniProt Q13606)
T10 sequence (whole entry): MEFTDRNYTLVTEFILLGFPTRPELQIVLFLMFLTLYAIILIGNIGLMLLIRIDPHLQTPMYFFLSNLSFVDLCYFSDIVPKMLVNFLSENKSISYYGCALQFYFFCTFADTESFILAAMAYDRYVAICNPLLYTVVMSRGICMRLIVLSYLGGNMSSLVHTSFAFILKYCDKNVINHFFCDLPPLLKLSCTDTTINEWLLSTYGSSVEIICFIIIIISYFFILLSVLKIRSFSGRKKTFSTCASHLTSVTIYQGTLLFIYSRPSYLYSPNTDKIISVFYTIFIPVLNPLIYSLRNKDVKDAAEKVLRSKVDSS
Method in brief: as §1

[11] = target: T11, OR5J2 (Homo sapiens) (UniProt Q8NH18)
T11 sequence (whole entry): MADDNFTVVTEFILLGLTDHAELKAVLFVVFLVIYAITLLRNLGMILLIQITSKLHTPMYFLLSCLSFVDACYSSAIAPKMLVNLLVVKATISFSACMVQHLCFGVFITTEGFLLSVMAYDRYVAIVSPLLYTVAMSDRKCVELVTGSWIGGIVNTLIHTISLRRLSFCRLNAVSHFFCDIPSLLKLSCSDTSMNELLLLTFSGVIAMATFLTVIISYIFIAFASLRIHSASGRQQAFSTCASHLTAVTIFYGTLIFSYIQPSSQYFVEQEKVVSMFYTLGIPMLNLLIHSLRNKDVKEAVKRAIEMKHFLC
Method in brief: as §1

[12] = test system: OR5DE
Method in brief: as §1

[13] = test system: OR5DE; remark: listed apart in the source
Method in brief: as §1

[14] = test system: OR5DE; remark: listed apart in the source
Method in brief: as §1

[15] = test system: OR5DE; remark: listed apart in the source
Method in brief: as §1

[16] = target: OR5F1 (Homo sapiens) (UniProt O95221)
Method in brief: as §1

[17] = target: OR5H14 (Homo sapiens) (UniProt A6NHG9)
Method in brief: as §1

[18] = target: OR5H15 (Homo sapiens) (UniProt A6NDH6)
Method in brief: as §1

[19] = test system: OR5H2; remark: listed apart in the source
Method in brief: as §1

[20] = target: OR5H6 (Homo sapiens) (UniProt Q8NGV6)
Method in brief: as §1
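Note: active if original authors judged signal statistically different from baseline.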

Compound	odorant receptor agonist call [1]	odorant receptor agonist call [2]	odorant receptor agonist call [3]	odorant receptor agonist call [4]	odorant receptor agonist call [5]	odorant receptor agonist call [6]	odorant receptor agonist call [7]	odorant receptor agonist call [8]	odorant receptor agonist call [9]	odorant receptor agonist call [10]	odorant receptor agonist call [11]	odorant receptor agonist call [12]	odorant receptor agonist call [13]	odorant receptor agonist call [14]	odorant receptor agonist call [15]	odorant receptor agonist call [16]	odorant receptor agonist call [17]	odorant receptor agonist call [18]	odorant receptor agonist call [19]	odorant receptor agonist call [20]
CC(=O)C(C)=O	inactive	inactive	inactive	inactive	inactive	inactive	inactive	inactive	inactive	inactive	inactive	–	–	–	–	–	–	–	–	–
CCCC(=O)O	inactive	inactive	inactive	inactive	inactive	inactive	inactive	inactive	inactive	inactive	inactive	active	inactive	inactive	inactive	–	–	–	–	–
c1cnccn1	inactive	inactive	inactive	inactive	inactive	inactive	inactive	inactive	inactive	inactive	inactive	–	–	–	–	–	–	–	–	–
C=CCc1ccc(OC(C)=O)c(OC)c1	inactive	inactive	active	inactive	inactive	inactive	inactive	inactive	inactive	active	active	–	–	–	–	–	–	–	–	–
COc1cc(C)ccc1O	inactive	inactive	inactive	inactive	inactive	inactive	inactive	inactive	inactive	inactive	inactive	–	–	–	–	–	–	–	–	–
CCCCCCCCCC=O	inactive	inactive	inactive	inactive	inactive	inactive	inactive	inactive	inactive	inactive	inactive	–	–	–	–	–	–	–	–	–
C=CC(C)(O)CCC=C(C)C (stereo not drawn)	inactive	inactive	inactive	inactive	inactive	inactive	inactive	inactive	inactive	inactive	inactive	–	–	–	–	–	–	–	–	–
CCCCCCCOC(C)=O	inactive	inactive	inactive	inactive	inactive	inactive	inactive	inactive	inactive	inactive	inactive	–	–	–	–	–	–	–	–	–
CC(=O)c1ccccc1	inactive	inactive	inactive	inactive	inactive	inactive	inactive	inactive	inactive	inactive	–	–	–	–	–	–	–	–	–	–
CC12C=CCC1C1CCC3CC(=O)CCC3(C)C1CC2 (stereo not drawn)	inactive	active	active	inactive	inactive	inactive	inactive	inactive	inactive	–	inactive	–	–	–	–	inactive	inactive	inactive	inactive	inactive
CC1=NC(C)SC1C (stereo not drawn)	inactive	inactive	inactive	inactive	inactive	inactive	inactive	inactive	inactive	inactive	–	–	–	–	–	–	–	–	–	–
CCCCCCCC=O	inactive	inactive	inactive	inactive	inactive	inactive	inactive	inactive	inactive	inactive	inactive	–	–	–	–	–	–	–	–	–
CCCCCOC(C)=O	inactive	inactive	inactive	inactive	inactive	inactive	inactive	inactive	inactive	inactive	inactive	–	–	–	–	–	–	–	–	–
CC12CCC(CC1)C(C)(C)O2	inactive	inactive	inactive	inactive	inactive	inactive	inactive	inactive	inactive	inactive	inactive	–	–	–	–	–	–	–	–	–
c1ccc(Oc2ccccc2)cc1	inactive	inactive	inactive	inactive	inactive	inactive	inactive	inactive	inactive	inactive	inactive	–	–	–	–	–	–	–	–	–
CC(C)C=O	inactive	inactive	inactive	inactive	inactive	inactive	inactive	inactive	inactive	inactive	inactive	–	–	–	–	–	–	–	–	–
CCCCCC(C)=O	inactive	inactive	inactive	inactive	inactive	inactive	inactive	inactive	inactive	inactive	–	–	–	–	–	–	–	–	–	–
COC(=O)c1ccccc1	inactive	inactive	inactive	inactive	inactive	active	inactive	inactive	active	inactive	–	–	–	–	–	–	–	–	–	–
CC12CCC(C1)C(C)(C)C2=O (stereo not drawn)	inactive	inactive	inactive	inactive	inactive	inactive	inactive	inactive	inactive	inactive	inactive	–	–	–	–	–	–	–	–	–
CC1CCC(C(C)C)C(O)C1 (stereo not drawn)	active	inactive	inactive	active	active	inactive	inactive	active	inactive	inactive	inactive	–	–	–	–	–	–	–	–	–
O=C1CCCCCCCCCCCCCCO1	inactive	inactive	inactive	inactive	inactive	inactive	inactive	inactive	inactive	inactive	inactive	–	–	–	–	–	–	–	–	–
CC=Cc1ccc(O)c(OC)c1	inactive	inactive	inactive	inactive	inactive	inactive	inactive	inactive	inactive	inactive	active	–	–	–	–	–	–	–	–	–
COC(=O)c1ccccc1O	inactive	inactive	inactive	inactive	inactive	inactive	inactive	inactive	inactive	inactive	inactive	–	–	–	–	–	–	–	–	–
CCCCCCCCOC(C)=O	inactive	inactive	inactive	inactive	inactive	inactive	inactive	inactive	inactive	inactive	inactive	–	–	–	–	–	–	–	–	–

Complete entries, quoted from the list. Values in the order: odorant receptor agonist call [1]	odorant receptor agonist call [2]	odorant receptor agonist call [3]	odorant receptor agonist call [4]	odorant receptor agonist call [5]	odorant receptor agonist call [6]	odorant receptor agonist call [7]	odorant receptor agonist call [8]	odorant receptor agonist call [9]	odorant receptor agonist call [10]	odorant receptor agonist call [11]	odorant receptor agonist call [12]	odorant receptor agonist call [13]	odorant receptor agonist call [14]	odorant receptor agonist call [15]	odorant receptor agonist call [16]	odorant receptor agonist call [17]	odorant receptor agonist call [18]	odorant receptor agonist call [19]	odorant receptor agonist call [20]
COC(=O)c1ccccc1 as listed: inactive	inactive	inactive	inactive	inactive	active	inactive	inactive	active	inactive	–	–	–	–	–	–	–	–	–	–
O=C1CCCCCCCCCCCCCCO1 as listed: inactive	inactive	inactive	inactive	inactive	inactive	inactive	inactive	inactive	inactive	inactive	–	–	–	–	–	–	–	–	–
